{
  "source": "PubChem BioAssay AID540276",
  "about": "(National Center for Advancing Translational Sciences (NCATS), 2011)",
  "note": "Several values for one entry are separate records, joined by “and”; a condition that tells them apart may be missing. Equal entries are not always repeated. In all, about 300,000 compounds went through this assay and about 5,400 (1.8%) were called active. The shares of active, inactive and inconclusive entries below differ from those in the screen. The call rests on the fitted dose curve; tested in HEK293 cells. Where the call is inconclusive, the potency comes from a doubtful curve fit. Potency means the concentration at half of the fitted maximal effect.",
  "data": [
    {"experiment": "qHTS for inhibitors of binding or entry into cells for Marburg Virus", "settings": "Marburg virus pseudotyped entry inhibition, cell reporter; series mostly up to 37.8 µM", "values": [
      {"smiles": "CCOC(=O)CSc1nc2sc(C)c(C)c2c(=O)[nH]1", "Potency": "inactive"},
      {"smiles": "CCCCN(CC)C(=O)c1ccc(Cl)cc1", "Potency": "inactive"},
      {"smiles": "CS(=O)(=O)N(CCc1ccccc1)CC(=O)Nc1ccc(OCc2ccccc2)cc1", "Potency": "inconclusive: 12.6 µM [inhibitor, single point]"},
      {"smiles": "CC(=O)c1cccc(NC(=O)CN2CCN(Cc3ccccc3)CC2)c1", "Potency": "inactive"},
      {"smiles": "CC(CCc1ccc(O)cc1)NCc1ccc(Br)cc1", "note": "(centres undefined)", "Potency": "inconclusive: 35.5 µM [inhibitor, partial curve, poor fit]"},
      {"smiles": "CC(=O)c1ccc(NCC2COc3ccccc3O2)c([N+](=O)[O-])c1", "note": "(centres undefined)", "Potency": "inconclusive: 35.5 µM [activator, partial curve, poor fit]"},
      {"smiles": "CCOCCc1nnc(NC(=O)C(=O)c2cc(C)n(-c3ccc(Cl)cc3)c2C)s1", "Potency": "inactive"},
      {"smiles": "CNc1nc(Cl)c(SC)c(N2CCOCC2)n1", "Potency": "inactive"},
      {"smiles": "O=c1[nH]c2cc3c(cc2cc1C(c1nnnn1C1CCCC1)N1CCCc2ccccc21)OCCO3", "note": "(centres undefined)", "Potency": "inconclusive: 3.16 µM [inhibitor, single point]"},
      {"smiles": "COc1ccc(CC(=O)Nc2nc(-c3cc(OC)ccc3OC)cs2)cc1", "Potency": "inconclusive: 35.5 µM [inhibitor, partial curve, poor fit]"},
      {"smiles": "O=C(Cn1nnc(-c2cccs2)n1)NCCc1ccccc1", "Potency": "inconclusive: 0.562 µM [activator, single point]"},
      {"smiles": "COc1ccccc1OCCC(=O)OCC(=O)Nc1ccc(S(=O)(=O)N2CCOCC2)cc1", "Potency": "inconclusive: 35.5 µM [inhibitor, single point]"},
      {"smiles": "O=C(NCC(c1ccco1)N1CCCC1)c1ccccc1F", "note": "(centres undefined)", "Potency": "inactive"},
      {"smiles": "COc1cccc(CN2C(=O)C(C)N(C(=O)c3ccccc3)c3ccccc32)c1", "note": "(centres undefined)", "Potency": "active: 10 µM"},
      {"smiles": "O=C(CSc1ncc(-c2ccccc2)[nH]1)Nc1cccc(Br)c1", "Potency": "inactive"},
      {"smiles": "NC(N)=Nc1nc(CSCC/C(N)=N/S(N)(=O)=O)cs1", "Potency": "inconclusive: 2.51 µM [inhibitor, partial curve, poor fit]"},
      {"smiles": "COc1cccc(CC2(CO)CCCN(Cc3ccc(-c4ccco4)cc3)C2)c1", "note": "(centres undefined)", "Potency": "inconclusive: 35.5 µM [inhibitor, single point]"},
      {"smiles": "CCOC(=O)N1CCN(S(=O)(=O)c2ccc(C(=O)N(CCCN(C)C)c3nc4c(C)c(C)ccc4s3)cc2)CC1", "Potency": "inconclusive: 35.5 µM [inhibitor, single point]"},
      {"smiles": "O=C(NC(C(=O)c1ccccc1)c1ccccc1)c1ccccc1", "note": "(centres undefined)", "Potency": "inconclusive: 2.24 µM [inhibitor, partial curve, poor fit]"},
      {"smiles": "COc1ccccc1-c1ocnc1C(=O)N1CCN(C(=O)C(c2ccccc2)c2ccccc2)CC1", "Potency": "inconclusive: 5.62 µM [inhibitor, partial curve]"},
      {"smiles": "Nc1ccc(CSc2ccc(Cl)cc2)c(Cl)c1", "Potency": "inconclusive: 1 µM [activator, partial curve, poor fit]"},
      {"smiles": "COCCN1Cc2cccc(C(=O)Nc3ccc(-c4nc5ccccc5[nH]4)cc3)c2C1=O", "Potency": "inconclusive: 12.6 µM [activator, single point]"},
      {"smiles": "O=C(Cn1cc(C(=O)c2ccco2)c2ccccc21)Nc1ccccc1", "Potency": "inactive and inconclusive: 22.4 µM [activator, single point]"},
      {"smiles": "NS(=O)(=O)c1ccc(NC(=S)NC2CCCC2)cc1", "Potency": "inconclusive: 1.26 µM [activator, single point]"},
      {"smiles": "c1ccc(-c2nnc(-c3ccncc3)o2)cc1", "Potency": "inactive"},
      {"smiles": "Cc1c(C(=O)N2CCOCC2)[nH]c2c1C(=O)CC(c1ccccc1Cl)C2", "note": "(centres undefined)", "Potency": "inconclusive: 1.16 µM [inhibitor, full curve, poor fit]"},
      {"smiles": "O=C(Nc1ccccc1C(=O)O)c1cccc(N2C(=O)c3ccccc3C2=O)c1", "Potency": "inactive"},
      {"smiles": "CC(=O)N(c1ccccc1)C(C(=O)c1ccccc1)c1ccccc1", "note": "(centres undefined)", "Potency": "inconclusive: 14.1 µM [inhibitor, single point]"},
      {"smiles": "Cc1ccc(N/C(N)=N/c2nc(CSc3ccc(C)cc3)cc(=O)[nH]2)cc1", "Potency": "inconclusive: 3.16 µM [activator, single point]"},
      {"smiles": "Cc1cc(Nc2nc3ccccc3nc2Cl)n(-c2ccc([N+](=O)[O-])cc2)n1", "Potency": "inconclusive: 23.1 µM [inhibitor, partial curve, poor fit]"},
      {"smiles": "O=C(N/N=C1\\C(=O)c2cccc3cccc1c23)c1ccc(O)cc1", "Potency": "inconclusive: 17.8 µM [inhibitor, single point]"},
      {"smiles": "COc1ccc2nc(NC(=O)C3CCCN(S(=O)(=O)c4cccc5nonc45)C3)sc2c1", "note": "(centres undefined)", "Potency": "inconclusive: 35.5 µM [inhibitor, single point]"},
      {"smiles": "COn1c(-c2ccccc2)nc2ncccc21", "Potency": "inactive"},
      {"smiles": "CC(C)Cc1c(O)nc(SCCN2CCOCC2)[nH]c1=O", "Potency": "inactive"},
      {"smiles": "COc1ccc(N2C(=O)c3ccccc3NC2c2ccc(NC(C)=O)cc2)c(OC)c1", "note": "(centres undefined)", "Potency": "inconclusive: 35.5 µM [activator, single point]"},
      {"smiles": "O=C(Nc1ccc(S(=O)(=O)N2CCCCCC2)cc1)c1ccc(Br)o1", "Potency": "inconclusive: 23.1 µM [inhibitor, single point]"},
      {"smiles": "Cc1cc(C)cc(NC(=O)c2ccc3nc[nH]c3c2)c1", "Potency": "inactive"},
      {"smiles": "Cc1c(/C(O)=C2\\C(=O)C(=O)N(CCN(C)C)[C@H]2c2cccnc2)cnn1-c1ccccc1", "Potency": "inconclusive: 35.5 µM [inhibitor, single point]"},
      {"smiles": "COC(=O)c1cccc(NC(=O)CSc2nnc(C)n2Cc2ccccc2)c1", "Potency": "inactive"},
      {"smiles": "CC(=O)c1cccc(NC(=O)CCc2c(C)nc3nc(CN)nn3c2C)c1", "Potency": "inconclusive: 0.562 µM [inhibitor, full curve, poor fit]"},
      {"smiles": "CC(NC(=O)CSC1=NCCS1)c1ccccc1", "note": "(centres undefined)", "Potency": "inactive"},
      {"smiles": "CC(C)(C)C1CCc2c(sc(NC(=O)c3noc4c3CCCC4)c2C#N)C1", "note": "(centres undefined)", "Potency": "inactive"},
      {"smiles": "C=C(C)COc1ccc(-c2[nH]ncc2Oc2ccccc2OCC)c(O)c1", "Potency": "inconclusive: 10 µM [inhibitor, partial curve, poor fit]"},
      {"smiles": "COc1ccc(C(O)(c2ccccc2)c2ccncc2)cc1", "note": "(centres undefined)", "Potency": "inconclusive: 35.5 µM [inhibitor, single point]"},
      {"smiles": "O=C(Nc1cccc(Cl)c1)Nc1cccc(Cl)c1", "Potency": "inconclusive: 35.5 µM [inhibitor, partial curve, poor fit]"},
      {"smiles": "CC(C)[C@H](NC(N)=O)C(=O)Nc1cccc(S(=O)(=O)NC2=NCCCCC2)c1", "Potency": "inactive"},
      {"smiles": "CCOC(=O)N1CCN(Cc2nc3cc(NC(=O)c4ccccc4Cl)ccc3n2C(C)C)CC1", "Potency": "inconclusive: 2.82 µM [inhibitor, partial curve, poor fit]"},
      {"smiles": "CCC(CO)NC(=O)[C@@H]1C=C2c3cccc4[nH]cc(c34)C[C@H]2N(C)C1", "note": "(some centres undefined)", "Potency": "inconclusive: 1.12 µM [inhibitor, full curve, poor fit]"},
      {"smiles": "CC(=O)c1ccc(NC(=O)CSc2nc(C3CC3)nc3ccccc23)cc1", "Potency": "inconclusive: 11.2 µM [inhibitor, single point]"},
      {"smiles": "COC(=O)C(NC(=O)C(CC(C)C)NC(=O)C1CCC(C)CC1)C(C)C", "note": "(centres undefined)", "Potency": "inconclusive: 6.31 µM [inhibitor, single point]"},
      {"smiles": "CCN(CC)c1ccc(/C=N/Nc2nc3ccccc3[nH]2)cc1", "Potency": "active: 8.2 µM"},
      {"smiles": "C/C(=N/N1CCN(Cc2cccc3ccccc23)CC1)c1ccco1", "Potency": "inactive"},
      {"smiles": "CCCCC(CC)C(=O)Nc1ncc([N+](=O)[O-])s1", "note": "(centres undefined)", "Potency": "inconclusive: 35.5 µM [inhibitor, single point]"},
      {"smiles": "O=C(Cn1ncc(Cl)c(Cl)c1=O)c1ccc2c(c1)OCCO2", "Potency": "inconclusive: 35.5 µM [inhibitor, single point]"},
      {"smiles": "Cc1csc2nc(CSc3ccc(Cl)cc3)cn12", "Potency": "inconclusive: 35.5 µM [inhibitor, single point]"},
      {"smiles": "Cc1cccc(C2c3[nH]c4ccccc4c3CCN2C(=O)c2ocnc2C)n1", "note": "(centres undefined)", "Potency": "inactive"},
      {"smiles": "C/C(=N\\NC(N)=O)C1CC(Cc2ccccc2)C(=O)O1", "note": "(centres undefined)", "Potency": "inconclusive: 0.501 µM [inhibitor, single point]"},
      {"smiles": "Cc1ccc(CS(=O)Cc2ccc(C(=O)N3CCOCC3)o2)cc1", "note": "(centres undefined)", "Potency": "inactive"},
      {"smiles": "COC(=O)n1c(=O)oc2ccccc21", "Potency": "inactive"},
      {"smiles": "CC1=C(/C=C/C(C)=C/C=C/C(C)=C\\C(=O)O)C(C)(C)CCC1", "Potency": "inconclusive: 0.199 µM [inhibitor, full curve]"},
      {"smiles": "Cc1nn(-c2ccccc2)c(C)c1/C=C1\\C(=O)N(C)C(=S)N1C", "Potency": "inconclusive: 15.8 µM [inhibitor, partial curve, poor fit]"},
      {"smiles": "CC1CCCCN1S(=O)(=O)c1ccc(NC(=O)c2cccc(-n3cnnn3)c2)cc1", "note": "(centres undefined)", "Potency": "inactive"},
      {"smiles": "O=C(Nc1ccc(Cl)c(Cl)c1)C1=Cc2ccccc2OC1", "Potency": "inconclusive: 22.4 µM [inhibitor, single point]"},
      {"smiles": "COc1ccccc1N1N=C(c2ccc([N+](=O)[O-])cc2)CC1c1ccccc1", "note": "(centres undefined)", "Potency": "inconclusive: 1 µM [inhibitor, full curve, poor fit]"},
      {"smiles": "CCOc1ccc2cc(C3CC(c4ccco4)=NN3S(C)(=O)=O)c(Cl)nc2c1", "note": "(centres undefined)", "Potency": "inactive"},
      {"smiles": "CC1CCCC(C)N1/N=C/c1c[nH]c2ccc(Br)cc12", "note": "(centres undefined)", "Potency": "inconclusive: 35.5 µM [inhibitor, single point]"},
      {"smiles": "O=C1CCC(C(=O)NCc2ccccc2)N1", "note": "(centres undefined)", "Potency": "inconclusive: 0.316 µM [inhibitor, full curve, poor fit]"},
      {"smiles": "CCC(C(=O)NC1CCCC1)N(C(=O)Cn1nnc(-c2ccc(OC)c(OC)c2)n1)C1CCCCC1", "note": "(centres undefined)", "Potency": "inconclusive: 29.1 µM [inhibitor, single point]"},
      {"smiles": "CCOC(=O)C1CCCN(C(=O)c2cc3c(-c4cccc(OC)c4)nn(C)c3s2)C1", "note": "(centres undefined)", "Potency": "inconclusive: 11.2 µM [inhibitor, single point]"}
    ]}
  ]
}
